PubChem BioAssay AID1259424 – University of Nebraska Medical Center | 2018
Test: 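Find knockdowns that reproduce the expression shifts seen after KSR1 loss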 (primary screen). System: human HCT116 colon cancer cells. Knock-down reagent: siRNA pool against human genes, 50 nM. Detection: 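Log2 levels of six mRNAs (branched-DNA multiplex), adjusted by two reference genes and the non-targeting median, then scored against the average KSR1 knockdown pattern as Pearson r and euclidean distance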. Direction: mean correlation with KSR1 profile: higher = expression change more like KSR1 knockdown.
In all, the deposit lists about 14,000 reagents; shown is a part drawn at random. 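Higher correlation or smaller distance means closer resemblance to KSR1 loss; control wells, including KSR1 knockdowns, recur on many plates.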 A reagent listed more than once was tested more than once; the source does not tell the runs apart. Not all columns of the deposit are shown. The record does not give: the time to read-out.

| gene | mean correlation with KSR1 profile |
| --- | --- |
| SYVN1 (synoviolin 1) | 0.694 |
| NRN1 (neuritin 1) | -0.403 |
| RAB40B (RAB40B, member RAS oncogene family) | 0.901 |
| TFG (trafficking from ER to golgi regulator) | 0.0436 |
| FUT2 (fucosyltransferase 2 (H blood group)) | -0.626 |
| COPZ1 (coat protein complex I subunit zeta 1) | -0.65 |
| TIMM23B (translocase of inner mitochondrial membrane 23 homolog B) | -0.471 |
| HECW2 | -0.876 |
| CFAP92 (cilia and flagella associated protein 92 (putative)) | 0.182 |
| H3C10 (H3 clustered histone 10) | -0.23 |
| MRPL17 (mitochondrial ribosomal protein L17) | -0.128 |
| DNAJC9 (DnaJ heat shock protein family (Hsp40) member C9) | 0.825 |
| LZIC (leucine zipper and CTNNBIP1 domain containing) | 0.238 |
| AQP7 (aquaporin 7) | -0.336 |
| SPOCK1 | 0.286 |
| TRAPPC10 (trafficking protein particle complex subunit 10) | -0.097 |
| GARIN1B (golgi associated RAB2 interactor 1B) | 0.189 |
| PCDHB2 (protocadherin beta 2) | 0.00639 |
| PDSS1 (decaprenyl diphosphate synthase subunit 1) | -0.209 |
| ORC6 (origin recognition complex subunit 6) | 0.52 |
| ICA1 (islet cell autoantigen 1) | -0.413 |
| INSL5 (insulin like 5) | 0.399 |
| TALDO1 (transaldolase 1) | 0.264 |
| RNF20 (ring finger protein 20) | -0.629 |
| MAP3K14 (mitogen-activated protein kinase kinase kinase 14) | -0.356 |
| COX4I1 (cytochrome c oxidase subunit 4I1) | 0.334 |
| SCO1 (synthesis of cytochrome C oxidase 1) | 0.468 |
| NHLH2 (nescient helix-loop-helix 2) | -0.523 |
| DYM (dymeclin) | 0.876 |
| DPP4 (dipeptidyl peptidase 4) | -0.00287 |
| TMEM60 (transmembrane protein 60) | 0.47 |
| CYP11A1 (cytochrome P450 family 11 subfamily A member 1) | -0.0016 |
| APOL6 (apolipoprotein L6) | 0.768 |
| ADAM33 (ADAM metallopeptidase domain 33) | -0.671 |
| ZC3H4 (zinc finger CCCH-type containing 4) | -0.118 |
| MOAP1 (modulator of apoptosis 1) | -0.297 |
| MOAP1 (modulator of apoptosis 1) | 0.2 |
| SLC25A44 | 0.209 |
| CHN1 (chimerin 1) | -0.189 |
| ZCCHC17 (zinc finger CCHC-type containing 17) | -0.574 |
| CYSLTR2 (cysteinyl leukotriene receptor 2) | 0.816 |
| AP4M1 (adaptor related protein complex 4 subunit mu 1) | -0.139 |
| ATP4A (ATPase H+/K+ transporting subunit alpha) | 0.0402 |
| TGFB1 (transforming growth factor beta 1) | -0.591 |
| MRGPRX4 (MAS related GPR family member X4) | 0.721 |
| SLC49A4 | -0.365 |
| CDK5RAP3 (CDK5 regulatory subunit associated protein 3) | 0.369 |
| ENTPD5 (ectonucleoside triphosphate diphosphohydrolase 5) | 0.628 |
| HBP1 (HMG-box transcription factor 1) | -0.184 |
| DAZAP1 (DAZ associated protein 1) | 0.252 |

6 of these entries, set out differently:
SYVN1 (synoviolin 1)
- mean correlation with KSR1 profile: 0.694

NRN1 (neuritin 1)
- mean correlation with KSR1 profile: -0.403

RAB40B (RAB40B, member RAS oncogene family)
- mean correlation with KSR1 profile: 0.901

TFG (trafficking from ER to golgi regulator)
- mean correlation with KSR1 profile: 0.0436

FUT2 (fucosyltransferase 2 (H blood group))
- mean correlation with KSR1 profile: -0.626

COPZ1 (coat protein complex I subunit zeta 1)
- mean correlation with KSR1 profile: -0.65
